Results are given in words; binding and its absence hold for the method and conditions named. In cells and extracts the contact can be indirect. Some binding calls cover weakened binding; strength is not graded here.
How the values were obtained:
[1] = target: Nkx2-5 (mouse (endogenous in E12.5 hearts)), P42582; assay: co-IP; endogenous proteins immunoprecipitated with the indicated antibodies from nuclear extracts of E12.5 mouse hearts, Western blotting; in Figure 3D extracts exposed to 20 µg/ml EtBr or 50 µg/ml RNaseA; conditions: remark: other sources report otherwise
[2] = target: Nkx2-5 (mouse (endogenous in E12.5 hearts)) (UniProt P42582); assay: as above

Protein sequences, listed by entry. Tags and fused reporters are not part of them.
UniProt P42582: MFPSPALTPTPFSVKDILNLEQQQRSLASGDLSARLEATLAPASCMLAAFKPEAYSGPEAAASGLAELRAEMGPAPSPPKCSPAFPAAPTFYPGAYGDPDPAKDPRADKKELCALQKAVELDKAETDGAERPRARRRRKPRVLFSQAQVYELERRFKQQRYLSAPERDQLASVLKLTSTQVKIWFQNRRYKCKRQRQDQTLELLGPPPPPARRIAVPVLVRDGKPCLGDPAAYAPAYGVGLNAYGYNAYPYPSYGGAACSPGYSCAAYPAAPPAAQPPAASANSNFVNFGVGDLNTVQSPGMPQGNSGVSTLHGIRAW

| binding [1] | binding [2] | Binder |
| --- | --- | --- |
| no binding | – | Tbx5, P70326 1-518 (protein) MADTDEGFGLARTPLEPDSKDRSCDSKPESALGAPSKSPSSPQAAFTQQGMEGIKVFLHERELWLKFHEVGTEMIITKAGRRMFPSYKVKVTGLNPKTKYILLMDIVPADDHRYKFADNKWSVTGKAEPAMPGRLYVHPDSPATGAHWMRQLVSFQKLKLTNNHLDPFGHIILNSMHKYQPRLHIVKADENNGFGSKNTAFCTHVFPETAFIAVTSYQNHKITQLKIENNPFAKGFRGSDDLELHRMSRMQSKEYPVVPRSTVRHKVTSNHSPFSSETRALSTSSNLGSQYQCENGVSGPSQDLLPPPNPYPLAQEHSQIYHCTKRKDEECSSTEHPYKKPYMETSPSEEDTFYRSGYPQQQGLSTSYRTESAQRQACMYASSAPPSEPVPSLEDISCNTWPSMPSYSSCTVTTVQPMDRLPYQHFSAHFTSGPLVPRLAGMANHGSPQLGEGMFQHQTSVAHQPVVRQCGPQTGLQSPGGLQPPEFLYTHGVPRTLSPHQYHSVHGVGMVPEWSENS |
| – | binds | Xrn2 (enzyme, UniProt Q9DBR1 1-951) MGVPAFFRWLSRKYPSIIVNCVEEKPKECNGVKIPVDASKPNPNDVEFDNLYLDMNGIIHPCTHPEDKPAPKNEDEMMVAIFEYIDRLFNIVRPRRLLYMAIDGVAPRAKMNQQRSRRFRASKEGMEAAVEKQRVREEILAKGGFLPPEEIKERFDSNCITPGTEFMDNLAKCLRYYIADRLNNDPGWKNLTVILSDASAPGEGEHKIMDYIRRQRAQPNHDPNTHHCLCGADADLIMLGLATHEPNFTIIREEFKPNKPKPCALCNQFGHEVKDCEGLPREKKGKHDELADSLPCAEGEFIFLRLNVLREYLERELTMASLPFPFDVERSIDDWVFMCFFVGNDFLPHLPSLEIREGAIDRLVNIYKNVVHKTGGYLTESGYVNLQRVQMIMLAVGEVEDSIFKKRKDDEDSFRRRQKEKRKRMKRDQPAFTPSGILTPHALGSRNSPGCQVASNPRQAAYEMRMQRNSSPSISPNTSFASDGSPSPLGGIKRKAEDSDSEPEPEDNVRLWEAGWKQRYYKNKFDVDAADEKFRRKVVQSYVEGLCWVLRYYYQGCASWKWYYPFHYAPFASDFEGIADMSSEFEKGTKPFKPLEQLMGVFPAASGNFLPPTWRKLMSDPDSSIIDFYPEDFAIDLNGKKYAWQGVALLPFVDERRLRAALEEVYPDLTPEENRRNSLGGDVLFVGKLHPLRDFILELYQTGSTEPVDVPPELCHGIQGTFSLDEEAILPDQTVCSPVPMLRDLTQNTAVSINFKDPQFAEDYVFKAAMLPGARKPATVLKPGDWEKSSNGRQWKPQLGFNRDRRPVHLDQAAFRTLGHVTPRGSGTSVYTNTALPPANYQGNNYRPLLRGQAQIPKLMSNMRPQDSWRGPPPLFQQHRFERSVGAEPLLPWNRMIQNQNAAFQPNQYQMLGGPGGYPPRRDDHRGGRQGYPREGRKYPLPPPSGRYSWN |
